Measurements as given in paper PMC7819943, “Rice protein-binding microarrays: a tool to detect cis-acting elements near promoter regions in rice”.
This is one part of the list.

Protein sequences, listed by entry. Tags and fused reporters are not part of them.
UniProt Q0JBA9, entry or part of it: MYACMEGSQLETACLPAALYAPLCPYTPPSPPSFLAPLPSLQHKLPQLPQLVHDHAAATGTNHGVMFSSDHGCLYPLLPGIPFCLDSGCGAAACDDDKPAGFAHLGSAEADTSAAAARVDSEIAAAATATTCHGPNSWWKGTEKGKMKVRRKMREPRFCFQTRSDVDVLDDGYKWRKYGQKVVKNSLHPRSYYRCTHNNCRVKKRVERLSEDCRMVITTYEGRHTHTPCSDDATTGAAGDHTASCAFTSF

Biological target: OsWRKY34 (Oryza sativa, UniProt Q0JBA9 1-250)
Assay: protein-binding microarray (RPBM); PBS, 2% BSA, 51.3 ng/ul salmon testes DNA, 50 uM zinc acetate, 200 nM TF, 25 C, 1 h; high values mean tight binding
Conditions: protein: recombinant; tags: N-terminal polyhistidine and DsRed monomer fusion (pET32a); label: CyDye5-dUTP incorporated in the synthesized complementary strand; 3' TTTTT single-stranded linker to array surface; dsDNA, one strand shown
How it was run: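 Binding signal is reported as fluorescence intensity per feature (arbitrary units) from an Axon 4000B scanner. Incubation used 200 nM of each Ni–NTA-purified, N-terminally polyhistidine- and DsRed-fused transcription factor from E. coli BL21-CodonPlus on a double-stranded custom Agilent array for 1 h at 25 °C, with 50 µM zinc acetate in the buffer, followed by washing.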

| Sequence | binding signal |
| --- | --- |
| CTGCCGGCACTTCCCGTCGTCGTCGATCACCGCTGCTCCCCGGAGTCACCTAGTGCAG | 8990 fluorescence intensity (a.u.) |
| CGACCTCCGCCAGCCACGTCAACCTGACTTTTGTGAAAAACGGAGTCACCTAGTGCAG | 8180 fluorescence intensity (a.u.) |
| TCCTGTCTGTTTGTCCCGGGGTCTCGTGGCACCTCAATTTCGGAGTCACCTAGTGCAG | 12300 fluorescence intensity (a.u.) |
| AAGAAGCCGCCTTGGTTTGGTAGTACAATTGTTCATCGGCCGGAGTCACCTAGTGCAG | 8330 fluorescence intensity (a.u.) |
| TTTGGAGCCATTTCGTTTAGTTTGAGTTCTTTCGGTGTTTCGGAGTCACCTAGTGCAG | 11800 fluorescence intensity (a.u.) |
| CAGGCTTCCCTCGCTCTCTTTAATCTGCCACCATCAACAACGGAGTCACCTAGTGCAG | 8060 fluorescence intensity (a.u.) |
| GGTTTAGACGTGGCGGTGGTGGGTGGCGTACGTTTGGGTTCGGAGTCACCTAGTGCAG | 12000 fluorescence intensity (a.u.) |
| CTCACCAACCTCGTCTCGTCTCGTCTCGTCTCGCCTCTCGCGGAGTCACCTAGTGCAG | 10500 fluorescence intensity (a.u.) |
| GTCCCCGAACTTCCAGTTAATTATGTGCCGGTCCTAGATTCGGAGTCACCTAGTGCAG | 9310 fluorescence intensity (a.u.) |
| GACACTGCCACCTCACTCTCCACTCCACTATATATACCCTCGGAGTCACCTAGTGCAG | 12100 fluorescence intensity (a.u.) |
| CTCGCTTCTCGCGGCTAGGGTTTTAGGGTTTTTTTTTTCCCGGAGTCACCTAGTGCAG | 11900 fluorescence intensity (a.u.) |
| GTCTGATTTTGGCTGTGTAAATCCGTCTCAGGATAGGCCGCGGAGTCACCTAGTGCAG | 9130 fluorescence intensity (a.u.) |
| TGGTTGGTTGTGTTGTAATGGCTGTTAGTATTAGGAGAAACGGAGTCACCTAGTGCAG | 12000 fluorescence intensity (a.u.) |
| CTTGTTTCTCTTTTTCCTTTTCATTTCAGTGTTGTGTAATCGGAGTCACCTAGTGCAG | 13800 fluorescence intensity (a.u.) |
| CATCCTCGACGCTGACACTGGGGTGGAGGAGGTGGGGAGGCGGAGTCACCTAGTGCAG | 12600 fluorescence intensity (a.u.) |
| CCTCTGCTACGTCCAGTTCCCGCAGCGCTTCGAGGGCATCCGGAGTCACCTAGTGCAG | 8700 fluorescence intensity (a.u.) |
| GGTATCTTGTTCTGTCTGTTCTGATAGTATTTTGTATATCCGGAGTCACCTAGTGCAG | 12000 fluorescence intensity (a.u.) |
| GGGCTGAATCGTTTTTTTTGTTGGTGTGCTTTGAATGCACCGGAGTCACCTAGTGCAG | 10000 fluorescence intensity (a.u.) |
| TATGTTGCGTTTTAGTTTTAGTTCCATATATTTTAGCAGACGGAGTCACCTAGTGCAG | 8780 fluorescence intensity (a.u.) |
| GGTGGCAAACACATTCTTCTTCCTGTTTCTAAACAAATCTCGGAGTCACCTAGTGCAG | 8290 fluorescence intensity (a.u.) |
| TTTTTTTTGCCTTTCGCCACTGACTCGTGTCAACATCTCACGGAGTCACCTAGTGCAG | 9550 fluorescence intensity (a.u.) |

| Sequence | binding signal |
| --- | --- |
| GGTCGCGTCTCCTCGTCTCGTCGCCTCTTCCTCCTTCCAACGGAGTCACCTAGTGCAG | 12300 fluorescence intensity (a.u.) |
| GCCCGCCCGCCCGCCGCAGCCGCCGAGCATTTTAAGTATCCGGAGTCACCTAGTGCAG | 9680 fluorescence intensity (a.u.) |
| CCCGCCGCCGCGGCTGCCACCGCACGTGCGTCGACCCCGCCGGAGTCACCTAGTGCAG | 8730 fluorescence intensity (a.u.) |
| CCCAAGTCACCAGCATCACCACTCTCGCATGCTCCATTTCCGGAGTCACCTAGTGCAG | 8770 fluorescence intensity (a.u.) |
| GAGAGGGGTGTGGGGCTCAATTTAGATCCTCTGCAGTGGACGGAGTCACCTAGTGCAG | 10900 fluorescence intensity (a.u.) |
| TCATATCATATGGCATACTACTTCTATTCTTTTTTTTTTGCGGAGTCACCTAGTGCAG | 8600 fluorescence intensity (a.u.) |
| ACCCACACCCACGGATCACTGCCCCACTCCCAACCCATCTCGGAGTCACCTAGTGCAG | 10400 fluorescence intensity (a.u.) |
| ATCAGTCCCGTCCGTGCCCGCCGACCCACTCAAAGATCAACGGAGTCACCTAGTGCAG | 8350 fluorescence intensity (a.u.) |
| GAATTTAGGGGTTGTTTGGTTGCTTCCTTGAGAATCATGCCGGAGTCACCTAGTGCAG | 8840 fluorescence intensity (a.u.) |
| GGGTTCGAGTCCCACCAGGCGTGTCTTCGTTTTGGATTCTCGGAGTCACCTAGTGCAG | 8220 fluorescence intensity (a.u.) |
| CTACTACCGTCGTATTTATGTTTTTTGTTTTTCAGATAAACGGAGTCACCTAGTGCAG | 8800 fluorescence intensity (a.u.) |
| TCCCCACCGCCGCTCTAGGGTTAGGGTTTCGTGTTTCGTCCGGAGTCACCTAGTGCAG | 8230 fluorescence intensity (a.u.) |
| TCTTTTCCTTTTTCTACTTACTATTATTATTATATAATATCGGAGTCACCTAGTGCAG | 8900 fluorescence intensity (a.u.) |
| CCTCCTCTTCTTCTTCTTCGCCAGCACCATCGCTTCCAACCGGAGTCACCTAGTGCAG | 8480 fluorescence intensity (a.u.) |
| GAATAGTTTCCCTAGTTCAGTCGTGTTTCCCGTGTTCTGACGGAGTCACCTAGTGCAG | 9590 fluorescence intensity (a.u.) |
| CCCCTGTTTCTCGGTTCTTTCGCTCGCCTTCTAGGCCCAACGGAGTCACCTAGTGCAG | 11400 fluorescence intensity (a.u.) |
| TGTCGGTGCAGGAGGCGGTGGAGGGGAGCAGGCTGTACATCGGAGTCACCTAGTGCAG | 10600 fluorescence intensity (a.u.) |
| AATACATCTTCTCAAAATTTTTCTAGTAACATGCAAACAACGGAGTCACCTAGTGCAG | 8540 fluorescence intensity (a.u.) |
| TTACCTCCACTATTATCACTAGCTTGTTCCTATTCTCTGGCGGAGTCACCTAGTGCAG | 8220 fluorescence intensity (a.u.) |
| TACCTGATCAACTTTGACTAATTTTATCCATGTCATTCAGCGGAGTCACCTAGTGCAG | 9490 fluorescence intensity (a.u.) |
| ACGTGTCACGGCTCATGTGGAATATAGTTTGTGGGATTTTCGGAGTCACCTAGTGCAG | 8150 fluorescence intensity (a.u.) |

Copied from the list.
binding signal, GGTTTAGACGTGGCGGTGGTGGGTGGCGTACGTTTGGGTTCGGAGTCACCTAGTGCAG reads 12000 fluorescence intensity (a.u.)
binding signal, TTTGGAGCCATTTCGTTTAGTTTGAGTTCTTTCGGTGTTTCGGAGTCACCTAGTGCAG reads 11800 fluorescence intensity (a.u.)
binding signal, CAGGCTTCCCTCGCTCTCTTTAATCTGCCACCATCAACAACGGAGTCACCTAGTGCAG reads 8060 fluorescence intensity (a.u.)
